Article PMC8347018
Results are given in words; binding and its absence hold for the method and conditions named. Some entries that bind do so weakly or less than the wild type.

Amino acid sequences for entries named in this document (tags omitted). Residues count along the entry.
UniProt P00772, residues 27-266: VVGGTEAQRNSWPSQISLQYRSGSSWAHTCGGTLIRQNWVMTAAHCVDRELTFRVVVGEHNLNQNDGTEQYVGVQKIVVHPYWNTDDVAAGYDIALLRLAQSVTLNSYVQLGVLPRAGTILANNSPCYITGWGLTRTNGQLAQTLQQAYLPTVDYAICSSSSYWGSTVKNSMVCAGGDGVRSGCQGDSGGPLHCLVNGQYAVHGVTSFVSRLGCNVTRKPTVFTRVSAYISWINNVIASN
UniProt P01009, residues 25-418: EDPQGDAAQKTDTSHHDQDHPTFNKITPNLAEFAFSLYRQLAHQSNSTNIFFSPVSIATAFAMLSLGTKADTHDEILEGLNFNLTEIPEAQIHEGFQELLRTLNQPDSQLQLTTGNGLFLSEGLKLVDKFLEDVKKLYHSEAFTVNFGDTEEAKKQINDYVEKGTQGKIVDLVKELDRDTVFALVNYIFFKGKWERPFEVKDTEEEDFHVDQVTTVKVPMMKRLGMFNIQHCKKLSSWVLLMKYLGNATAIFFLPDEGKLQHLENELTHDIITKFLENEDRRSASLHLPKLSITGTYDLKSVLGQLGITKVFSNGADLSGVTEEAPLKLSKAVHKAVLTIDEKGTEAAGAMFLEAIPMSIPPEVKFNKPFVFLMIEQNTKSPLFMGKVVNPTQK

Tests used:
[1] = target: Porcine pancreas elastase (Sigma-Aldrich) (porcine) (UniProt P00772); assay: SDS-PAGE and Western blot (anti-AAT) of the AAT-elastase complex; supernatants of PBMCs cultured 6 h at 37 °C with 0.5 mg/mL AAT, some with 10 ng/mL LPS and 12 µg/mL spike, then incubated with porcine pancreas elastase at a molar ratio of 2:1 (AAT/elastase) for 30 min at room temperature; stopped with SDS sample buffer; 7.5% SDS gel, blot with polyclonal rabbit anti-human AAT; only the target purified
[2] = target: Porcine pancreas elastase (Sigma-Aldrich) (porcine) (UniProt P00772); assay: SDS-PAGE of the AAT-elastase complex, Coomassie stain; AAT (0.5 mg/mL, diluted 1 in 25) mixed with porcine pancreas elastase at a molar ratio of 2:1 (AAT:elastase), 30 min at room temperature, in some samples with 10 ng/mL LPS and 12 µg/mL spike; stopped with SDS sample buffer; 7.5% SDS gel (same samples also on 7.5% native gel); both purified

With “Recombinant α-1 antitrypsin (recAAT) produced in CHO cells (ExcellGene) (from UniProt P01009 25-418)” the binding [1] was “binds” and the binding [2] was “binds”.
